Source: PubChem BioAssay AID1508588 (Peter MacCallum Cancer Centre, 2020)

Purpose: 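Knock-downs boosting vemurafenib effects on melanoma cell growth or lactate release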 (primary screen)
System: human WM266.4 melanoma cells (BRAF V600 mutant)
Reagents: siRNA pool against human genes, 40 nM
Time to read-out: 96 h from transfection to read-out
Treatment: vemurafenib 300 nM (about IC25), added 48 h after transfection, for 48 h; comparison arm got DMSO vehicle only
Measurement: 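Ratios to non-targeting siRNA for cell gain, counted as DAPI nuclei after minus before drug and averaged over two replicates, and for absorbance-read medium lactate per cell; both binned into fold-change classes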
Direction: cell gain with vemurafenib: higher = more cell gain than with non-targeting siRNA; lactate per cell with vemurafenib: higher = more lactate made per cell
Call rule: 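Enhancement is called by pairing each knock-down's vehicle-arm and drug-arm fold-change classes for viability or glycolysis; which class combinations qualify is not given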
Calls: active = enhances vemurafenib effect; inactive = no enhancement seen
The whole screen tested about 18,000 reagents; below is an unselected part. 790 of all reagents (4.4%) count as active. 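Calls rest on a combination of fold-change classes in drug and vehicle arms, not all shown here.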 A number with no mark means an inactive call. Reagents against one gene are numbered here.

The opening 5 entries, ahead of the listing:
cell gain with vemurafenib	lactate per cell with vemurafenib	target gene	reagent
0.77	0.66	VWA3B (von Willebrand factor A domain containing 3B)	1
0.77	0.54	PIGU (phosphatidylinositol glycan anchor biosynthesis class U)	1
0.84	0.98	SMR3B (submaxillary gland androgen regulated protein 3B)	1
0.69	1.06	SERPINB2 (serpin family B member 2)	1
0.84	1.36	CD300LG (CD300 molecule like family member g)	1

Main list, repeating the preview:
cell gain with vemurafenib	lactate per cell with vemurafenib	target gene	reagent
0.77	0.66	VWA3B (von Willebrand factor A domain containing 3B)	1
0.77	0.54	PIGU (phosphatidylinositol glycan anchor biosynthesis class U)	1
0.84	0.98	SMR3B (submaxillary gland androgen regulated protein 3B)	1
0.69	1.06	SERPINB2 (serpin family B member 2)	1
0.84	1.36	CD300LG (CD300 molecule like family member g)	1
0.58	0.53	TNNI1 (troponin I1, slow skeletal type)	1
0.48	0.56	TMEM50A (transmembrane protein 50A)	1
0.91	0.75	CFAP100 (cilia and flagella associated protein 100)	1
-0.15	3.58	TRIM64C (tripartite motif containing 64C)	1
0.95	0.92	TRIM64C (tripartite motif containing 64C)	2
0.48	1.25	POR (cytochrome p450 oxidoreductase)	1
0.78	0.69	WSCD1 (WSC domain sialate O sulfotransferase 1)	1
0.56	0.52	IL4R (interleukin 4 receptor)	1
0.62	0.62	ZNF518B (zinc finger protein 518B)	1
0.48	0.4	ELF2 (E74 like ETS transcription factor 2)	1
0.56	1.33	DMAC2L (distal membrane arm assembly component 2 like)	1
0.28	1.56	PRIM2 (DNA primase subunit 2)	1
0.71	0.7	ZFAT (zinc finger and AT-hook domain containing)	1
0.43	0.84	ANTXR2 (ANTXR cell adhesion molecule 2)	1
0.71	0.96	RIC3 (RIC3 acetylcholine receptor chaperone)	1
0.86	0.33	NFATC4 (nuclear factor of activated T cells 4)	1
0.7	1.34	PCDHGA7 (protocadherin gamma subfamily A, 7)	1
1.08	0.69	COL4A3 (collagen type IV alpha 3 chain)	1
0.71 (active)	0.1	MAGEB4 (MAGE family member B4)	1
0.87	0.6	WDR17 (WD repeat domain 17)	1
0.89	1.07	P4HTM (prolyl 4-hydroxylase, transmembrane)	1
0.71	1.12	CACNA1D (calcium voltage-gated channel subunit alpha1 D)	1
0.72	0.44	ARMH4 (armadillo like helical domain containing 4)	1
0.95	1.13	ANP32A (acidic nuclear phosphoprotein 32 family member A)	1
0.01	2.69	PRPF8 (pre-mRNA processing factor 8)	1
0.74	0.42	STK10 (serine/threonine kinase 10)	1
0.88	0.74	ATP6V1G1 (ATPase H+ transporting V1 subunit G1)	1
1	0.77	MAL2 (mal, T cell differentiation protein 2)	1
0.73	0.81	SEC61G (SEC61 translocon subunit gamma)	1
0.88	0.16	MTMR7 (myotubularin related protein 7)	1
0.45	0.52	USP10 (ubiquitin specific peptidase 10)	1
-0.13	3.49	IK (IK cytokine)	1
0.39	1.04	TLL1 (tolloid like 1)	1
0.8	0.58	ABRA (actin binding Rho activating protein)	1
0.93	0.5	IL26 (interleukin 26)	1
0.8	0.81	ASPN (asporin)	1
0.37	1.42	AGBL2 (AGBL carboxypeptidase 2)	1
0.52	0.55	TENT4A (terminal nucleotidyltransferase 4A)	1
0.47	0.63	RAB9A (RAB9A, member RAS oncogene family)	1
0.66	0.78	TCF4 (transcription factor 4)	1
0.78	1.33	IER3 (immediate early response 3)	1
0.4 (active)	0.36	THRSP (thyroid hormone responsive)	1
0.6	0.97	ASB4 (ankyrin repeat and SOCS box containing 4)	1
1	0.44	OSBPL6 (oxysterol binding protein like 6)	1
0.24	1.2	ANKHD1 (ankyrin repeat and KH domain containing 1)	1
0.32	1.07	WDR74 (WD repeat domain 74)	1
0.68	0.52	SPATA18 (spermatogenesis associated 18)	1
0.33	2.2	FRMD8 (FERM domain containing 8)	1
-0.18	0.64	FAM193A (family with sequence similarity 193 member A)	1
0.18	1.77	H3C3 (H3 clustered histone 3)	1
0.49	0.34	AMT (aminomethyltransferase)	1
0.56	0.86	ADAMTS19 (ADAM metallopeptidase with thrombospondin type 1 motif 19)	1
0.75	0.66	KLHL38 (kelch like family member 38)	1
0.72	1.43	APOLD1 (apolipoprotein L domain containing 1)	1
0.66	0.43	ASIC3 (acid sensing ion channel subunit 3)	1
0.61	0.37	CCL1 (C-C motif chemokine ligand 1)	1
0.76	1.08	EDRF1 (erythroid differentiation regulatory factor 1)	1
0.06	1.73	INTS1 (integrator complex subunit 1)	1
1.27	0.62	USP28 (ubiquitin specific peptidase 28)	1
0.9	0.57	NHEJ1 (non-homologous end joining factor 1)	1
0.41	1.45	ADGRE1 (adhesion G protein-coupled receptor E1)	1
0.7	0.26	OSTF1 (osteoclast stimulating factor 1)	1
0.44	0.92	MAGEA9 (MAGE family member A9)	1
0.65	0.66	CD209 (CD209 molecule)	1
0.9	0.52	CT47A4 (cancer/testis antigen family 47 member A4)	1
0.36	1.14	PPARG (peroxisome proliferator activated receptor gamma)	1
0.68	0.5	ZNF787 (zinc finger protein 787)	1
1.18	1.16	SLC26A3	1
0.22	1.36	CIMAP1B (ciliary microtubule associated protein 1B)	1
0.27	1.72	FLRT1 (fibronectin leucine rich transmembrane protein 1)	1
0.61	1.07	DPP4 (dipeptidyl peptidase 4)	1
0.58	0.98	RGS10 (regulator of G protein signaling 10)	1
0.41	1.22	CAMSAP3	1
0.7	0.67	HLA-A (major histocompatibility complex, class I, A)	1
0.49	0.38	PROM2 (prominin 2)	1
0.69	0.57	KASH5 (KASH domain containing 5)	1
0.44	0.98	EDARADD (EDAR associated via death domain)	1
0.68	1.02	SLIT2 (slit guidance ligand 2)	1
0.67	1.07	ACTR10 (actin related protein 10)	1
